Measurements published in paper PMC4519330.
Results are given in words; binding and its absence hold for the method and conditions named. Binding seen in cells or lysates may run through a third protein. Binding can be weak; no strength is given. For part of these data: Where a sequence is shown, tags or fusion partners need not be part of it.

Amino acid sequences for entries named in this document (tags omitted). A change or cut given only in a name is not applied to a line headed by its entry.
UniProt Q9Y4K3: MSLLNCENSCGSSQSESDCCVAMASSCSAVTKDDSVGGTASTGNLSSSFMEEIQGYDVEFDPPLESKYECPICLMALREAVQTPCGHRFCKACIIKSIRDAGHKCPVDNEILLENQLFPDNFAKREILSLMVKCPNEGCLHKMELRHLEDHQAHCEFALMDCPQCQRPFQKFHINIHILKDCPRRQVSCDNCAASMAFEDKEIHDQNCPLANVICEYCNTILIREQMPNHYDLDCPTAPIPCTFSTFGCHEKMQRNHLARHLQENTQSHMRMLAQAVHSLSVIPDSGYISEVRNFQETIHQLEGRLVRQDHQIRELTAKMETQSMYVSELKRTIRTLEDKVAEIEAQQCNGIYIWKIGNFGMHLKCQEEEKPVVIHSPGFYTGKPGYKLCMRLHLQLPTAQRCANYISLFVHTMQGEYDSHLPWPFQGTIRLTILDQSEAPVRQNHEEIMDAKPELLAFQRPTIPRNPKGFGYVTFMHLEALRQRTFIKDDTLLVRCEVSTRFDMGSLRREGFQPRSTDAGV
UniProt Q7Z434: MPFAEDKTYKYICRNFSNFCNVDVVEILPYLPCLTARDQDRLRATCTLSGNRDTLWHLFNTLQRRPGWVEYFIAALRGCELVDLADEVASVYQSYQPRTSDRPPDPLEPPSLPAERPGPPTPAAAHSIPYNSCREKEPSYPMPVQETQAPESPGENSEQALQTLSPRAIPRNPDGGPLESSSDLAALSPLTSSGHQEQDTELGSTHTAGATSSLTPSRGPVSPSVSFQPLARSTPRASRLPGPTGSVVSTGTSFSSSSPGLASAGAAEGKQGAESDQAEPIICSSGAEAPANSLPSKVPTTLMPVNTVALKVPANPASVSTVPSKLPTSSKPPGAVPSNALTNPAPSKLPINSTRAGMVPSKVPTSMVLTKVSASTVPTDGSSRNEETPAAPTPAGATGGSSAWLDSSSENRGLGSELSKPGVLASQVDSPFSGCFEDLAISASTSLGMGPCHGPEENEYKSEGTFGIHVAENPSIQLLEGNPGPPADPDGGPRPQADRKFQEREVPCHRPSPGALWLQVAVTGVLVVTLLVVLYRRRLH

Columns and labels:
Flag-TRAF6 = Flag-TRAF6 (UniProt Q9Y4K3); assay: co-IP; 293T cells co-transfected; lysates in NP40 buffer (50 mM Tris-HCl pH 7.4, 150 mM NaCl, 5 mM EDTA, 1% NP40) precipitated with anti-Flag agarose at 4°C for 4-6 hours; immunoblot
Flag-TRAF2 = biological target: T1, Flag-TRAF2 (UniProt Q12933); assay: as above
T1 sequence: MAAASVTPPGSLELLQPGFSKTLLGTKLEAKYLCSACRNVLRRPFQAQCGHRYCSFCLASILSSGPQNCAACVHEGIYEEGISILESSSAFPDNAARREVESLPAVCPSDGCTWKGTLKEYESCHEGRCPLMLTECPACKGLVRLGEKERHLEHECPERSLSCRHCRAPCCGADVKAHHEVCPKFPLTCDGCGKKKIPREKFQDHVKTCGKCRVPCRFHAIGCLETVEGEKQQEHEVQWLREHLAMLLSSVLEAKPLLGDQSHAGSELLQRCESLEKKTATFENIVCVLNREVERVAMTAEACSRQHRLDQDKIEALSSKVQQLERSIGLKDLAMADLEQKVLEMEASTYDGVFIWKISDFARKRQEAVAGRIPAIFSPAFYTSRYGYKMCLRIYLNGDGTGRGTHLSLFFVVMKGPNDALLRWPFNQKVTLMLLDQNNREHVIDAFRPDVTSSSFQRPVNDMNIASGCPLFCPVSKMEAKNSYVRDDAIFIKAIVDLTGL

| binding (Flag-TRAF6) | binding (Flag-TRAF2) | Substance |
| --- | --- | --- |
| binds | binds | MAVS50 mutant of TRAF6-binding (M6) (from UniProt Q7Z434) |
| – | no binding | MAVS50 mutant of TRAF2-binding (M2) (from UniProt Q7Z434) |
